Measured data: PubChem BioAssay AID1224828 (NIAID, 2016)
This is an unselected part of about 17,000 deposited reagents. 762 of all reagents (4.5%) were called active. 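Active calls include both raised and lowered p65 entry, mostly lowered; wells with fewer than 50 cells lack a z-score.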 Raw values are not corrected between plates. Reagent sequences are not shown.

- Purpose: 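Knock-downs that increase or decrease LPS-induced p65 nuclear translocation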 (primary screen)
- System: mouse RAW264.7 G9 macrophage reporter cells (GFP-p65, Tnf promoter-mCherry)
- Knock-down reagent: siRNA pool against mouse genes, 100 nM
- Timing: 2 days siRNA transfection, then 40 min LPS before fixation
- Challenge: LPS (Salmonella minnesota R595) at 10 ng/ml
- Read-out: 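Microscopy ratio of nuclear to perinuclear-ring GFP-p65 signal, scaled to the plate median; gene score is the average of two replicate robust z-scores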
- Reading the numbers: p65 translocation robust z-score: higher = more nuclear NF-kappaB p65 after LPS than the plate median; nuclear/cytoplasmic p65 ratio: higher = more nuclear NF-kappaB p65
- Rule for the call: 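Active if robust z is above 3.3 (negative regulators) or below -1.56, the Tlr4 control median (positive regulators); activity score 50 or more; control wells not called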
- Calls: active = hit (p65 shift raised or lowered); inactive = no clear change

Depletion of Ripk3 [SID315471598] gave: p65 translocation robust z-score 0.69; nuclear/cytoplasmic p65 ratio, rep 1 = 1.77; nuclear/cytoplasmic p65 ratio, rep 2 = 1.49; low cell count flag enough cells to score; inactive. Zfyve19 [SID315474420] gave p65 translocation robust z-score 0.07; nuclear/cytoplasmic p65 ratio, rep 1 = 1.46; nuclear/cytoplasmic p65 ratio, rep 2 = 1.26; low cell count flag enough cells to score; inactive. With knock-down of 9330132A10Rik [SID315481130], the screen gave p65 translocation robust z-score 2.58; nuclear/cytoplasmic p65 ratio, rep 1 = 1.74; nuclear/cytoplasmic p65 ratio, rep 2 = 1.94; low cell count flag enough cells to score; inactive. Against Psmc6 [SID315472828], the entry reads nuclear/cytoplasmic p65 ratio, rep 1 = 1.1; nuclear/cytoplasmic p65 ratio, rep 2 = 1.51; low cell count flag fewer than 50 cells per well; well left out of scoring; inactive. Silencing of Kcne2 [SID315479863] gave: nuclear/cytoplasmic p65 ratio, rep 1 = 1.23; nuclear/cytoplasmic p65 ratio, rep 2 = 1.24; low cell count flag fewer than 50 cells per well; well left out of scoring; inactive. Against Tial1 [SID315469716], the values are p65 translocation robust z-score -0.58; nuclear/cytoplasmic p65 ratio, rep 1 = 1.48; nuclear/cytoplasmic p65 ratio, rep 2 = 1.39; low cell count flag enough cells to score; inactive.

After knock-down of Egfr [SID315466459] the results were p65 translocation robust z-score 1.84; nuclear/cytoplasmic p65 ratio, rep 1 = 1.98; nuclear/cytoplasmic p65 ratio, rep 2 = 1.56; low cell count flag enough cells to score; inactive. Knock-down of Drc11l [SID315478858] resulted in: nuclear/cytoplasmic p65 ratio, rep 1 = 1.18; nuclear/cytoplasmic p65 ratio, rep 2 = 0; low cell count flag fewer than 50 cells per well; well left out of scoring; inactive. Silencing of Hspbap1 [SID315472575] resulted in: p65 translocation robust z-score 1.59; nuclear/cytoplasmic p65 ratio, rep 1 = 1.83; nuclear/cytoplasmic p65 ratio, rep 2 = 1.59; low cell count flag enough cells to score; inactive. Insyn1 [SID315481096] scored p65 translocation robust z-score 1.02; nuclear/cytoplasmic p65 ratio, rep 1 = 1.45; nuclear/cytoplasmic p65 ratio, rep 2 = 1.6; low cell count flag enough cells to score; inactive. After knock-down of Prcc [SID315476083], the record shows p65 translocation robust z-score 1.5; nuclear/cytoplasmic p65 ratio, rep 1 = 1.65; nuclear/cytoplasmic p65 ratio, rep 2 = 1.65; low cell count flag enough cells to score; inactive. Pfn2 [SID315468481] gave p65 translocation robust z-score -0.01; nuclear/cytoplasmic p65 ratio, rep 1 = 1.5; nuclear/cytoplasmic p65 ratio, rep 2 = 1.36; low cell count flag enough cells to score; inactive.

Depletion of Or5d35 [SID315480487] gave: p65 translocation robust z-score -2.17; nuclear/cytoplasmic p65 ratio, rep 1 = 1.37; nuclear/cytoplasmic p65 ratio, rep 2 = 1.22; low cell count flag enough cells to score; active. For Psmb2 [SID315470419] the deposit lists nuclear/cytoplasmic p65 ratio, rep 1 = 1.27; nuclear/cytoplasmic p65 ratio, rep 2 = 1.08; low cell count flag fewer than 50 cells per well; well left out of scoring; inactive. Depletion of BC048679 [SID315477637] gave: nuclear/cytoplasmic p65 ratio, rep 1 = 1.64; nuclear/cytoplasmic p65 ratio, rep 2 = 1.26; low cell count flag fewer than 50 cells per well; well left out of scoring; inactive. Depletion of Lcn8 [SID315475535] gave: p65 translocation robust z-score 1.08; nuclear/cytoplasmic p65 ratio, rep 1 = 1.49; nuclear/cytoplasmic p65 ratio, rep 2 = 1.79; low cell count flag enough cells to score; inactive. Silencing of Cmtm2a [SID315474716] gave: p65 translocation robust z-score 0.52; nuclear/cytoplasmic p65 ratio, rep 1 = 1.72; nuclear/cytoplasmic p65 ratio, rep 2 = 1.81; low cell count flag enough cells to score; inactive.

Called active (from the list above):
Or5d35 [SID315480487]: p65 translocation robust z-score = -2.17; nuclear/cytoplasmic p65 ratio, rep 1 = 1.37; nuclear/cytoplasmic p65 ratio, rep 2 = 1.22; low cell count flag = enough cells to score; activity call = active

The results go on.
After knock-down of Cdin1 [SID315481882], the record shows p65 translocation robust z-score -0.16; nuclear/cytoplasmic p65 ratio, rep 1 = 1.21; nuclear/cytoplasmic p65 ratio, rep 2 = 1.5; low cell count flag enough cells to score; inactive. After knock-down of Cldn9 [SID315471707] the results were p65 translocation robust z-score 0.3; nuclear/cytoplasmic p65 ratio, rep 1 = 1.67; nuclear/cytoplasmic p65 ratio, rep 2 = 1.8; low cell count flag enough cells to score; inactive. With knock-down of Tap2 [SID315469581] the results were p65 translocation robust z-score 0.1; nuclear/cytoplasmic p65 ratio, rep 1 = 1.47; nuclear/cytoplasmic p65 ratio, rep 2 = 1.6; low cell count flag enough cells to score; inactive. After knock-down of Cbr1 [SID315465799] the results were p65 translocation robust z-score 0.76; nuclear/cytoplasmic p65 ratio, rep 1 = 1.61; nuclear/cytoplasmic p65 ratio, rep 2 = 1.44; low cell count flag enough cells to score; inactive. With knock-down of Csrp1 [SID315466177], the screen gave p65 translocation robust z-score 0.06; nuclear/cytoplasmic p65 ratio, rep 1 = 1.57; nuclear/cytoplasmic p65 ratio, rep 2 = 1.31; low cell count flag enough cells to score; inactive. Silencing of Megf9 [SID315478775] came out at: p65 translocation robust z-score 0.08; nuclear/cytoplasmic p65 ratio, rep 1 = 1.59; nuclear/cytoplasmic p65 ratio, rep 2 = 1.27; low cell count flag enough cells to score; inactive.

Against Sox18 [SID315469386], the entry reads p65 translocation robust z-score -0.15; nuclear/cytoplasmic p65 ratio, rep 1 = 1.53; nuclear/cytoplasmic p65 ratio, rep 2 = 1.53; low cell count flag enough cells to score; inactive. With knock-down of Psma6 [SID315470417] the results were nuclear/cytoplasmic p65 ratio, rep 1 = 1.36; nuclear/cytoplasmic p65 ratio, rep 2 = 1.12; low cell count flag fewer than 50 cells per well; well left out of scoring; inactive. After knock-down of Erc2 [SID315479412] the results were p65 translocation robust z-score 0.43; nuclear/cytoplasmic p65 ratio, rep 1 = 1.5; nuclear/cytoplasmic p65 ratio, rep 2 = 1.44; low cell count flag enough cells to score; inactive. Silencing of Pparg [SID315468646] came out at: p65 translocation robust z-score 0.44; nuclear/cytoplasmic p65 ratio, rep 1 = 1.56; nuclear/cytoplasmic p65 ratio, rep 2 = 1.46; low cell count flag enough cells to score; inactive.
